Results as given in PMC10163288.
The list shows a part of the results.

B1: il10ra_site1_sap_20_mot_HHH_b2_03425_000000200_0001_22_39_H_._HHH_b1_07284_af2_0001_0000400022_0000001_0_0001_af2pred_0001 (protein)
chain: SSSSTEAERVRELLRRVAELLRKGNPEEAREVLREALELAEELGNLALEIAARFLEEIINSSSSS
B2: il10ra_site1_normal_mot_HHH_b2_01447_af2_000000258_0001_1_20_H_._HHH_b2_03594_0001_0000500068_0000001_0_af2pred_0001 (protein)
chain: SSSSSQEVIELLREAVELLNKGDPEEAERIAEEALELAEEAGNPVLEVIARFLLEHIRRLGSSSS
B3: il10ra_site1_sap_24_mot_0eddeacbb14b769e73e254714f31e2f9_0001_af2_000000127_0001_37_51_H_._HHH_b2_04293_0001_0000300035_0000001_0_0001 (protein)
chain: SSSSDASREVYELMRRAVEADLDGNPEEAEELAEEALELAERANNPFLRFLAESLLRMIRGSSSS
B4: il10ra_site1_sap_21_mot_HHH_b2_02694_000000228_0001_1_18_H_._HHH_b1_05849_0001_0000500014_0000001_0_0001 (protein)
chain: SSSSDDEKEVRELLEEAEEAEEEGDHDLVYELLKRAIEVATKSNDPELARLVMEFLHEWISSSSS
B5: il10ra_site1_normal_mot_HHH_b1_05056_000000217_0001_1_20_H_._HHH_b2_00620_0001_0000100002_0000003_0 (protein)
chain: SSSSDEEEVEEIEEKIERAIEEGNEEEALELLLRALRLAYELRDEELLRRLWELVRLVADSSSSS
B6: il10ra_site1_normal_mot_HHH_b2_07145_000000158_0001_24_40_H_._HHH_b1_07887_0001_0000100009_0000001_0 (protein)
chain: SSSSTEELFEKVRRLIKEAVELYRNGNPEEARRLLEELREELEELGNQALLWSVEHLLRLLSSSS
B7: il10ra_site1_normal_mot_HHH_b1_00566_000000151_0001_22_39_H_._HHH_b1_00313_af2_0001_0000100003_0000002_0_af2pred_0001 (protein)
chain: SSSSSEEEEIAKKVAEASRLAKERGDEEVVEELFQLLAEAFAKGDPELFEEVARLAEEFLSSSSS
B8: il10ra_site1_normal_mot_HHH_b2_08265_af2_000000206_0001_22_38_H_._HHH_b1_07741_af2_0001_0000100003_0000002_0 (protein)
chain: SSSSDEEQERLEELIEELEKLLEEGDQQKVIHILWELARLAAELNDEEALQIAQRVSRHLSSSSS
B9: il10ra_site1_sap_21_mot_HHH_b2_08186_000000021_0001_43_56_H_._HHH_b1_00499_af2_0001_0000400004_0000001_0_0001 (protein)
chain: SSSSDLKEYVEIARHFAEAALKNGTPEMAERIMELLLEALRHAGNPELVEEAEELLEEIQNSSSS
B10: il10ra_site1_normal_mot_HHH_b2_07440_af2_000000021_0001_1_18_H_._HHH_b2_06670_0001_0000100006_0000001_1 (protein)
chain: SSSSDLLEEVLELSREAFRLALRGNPEEAKRVLEEASELAEEGNNPRLLRVIEDLLQVIDSSSSS
B11: il10ra_site1_sap_21_mot_ems_3hM_3349_000000296_0001_25_42_H_._ced5346996f09c56612ad601d3ba6007_0001_1_0001_0000600011_0000002_0_0001_af2pred_0001 (protein)
chain: SSSSTEEDNKRAVEILLEAAEQIEDPERRKRALRFAKFAAEEMGDEELEELVEEVEERLRSSSSS
B12: il10ra_site1_sap_9_mot_HHH_b2_04251_af2_000000037_0001_42_56_H_._HHH_b1_02006_0001_0000800040_0000001_0_0001 (protein)
chain: SSSSDELEEYAEIAKHFIEAAVESGNPKLAERIARRAAEALENAGNPELAEEVRELIEELLSSSS
B13: il10ra_site1_sap_19_mot_HHH_b1_06789_af2_000000041_0001_1_20_H_._HHH_b1_06129_0001_0000400024_0000001_0_0001_af2pred_0001 (protein)
chain: SSSSDSQEVIKLIREAIELLRNGNPEEAQEVLERAREIAEEANNLALRFIVEALLRRIEEQSSSS
B14: il10ra_site1_sap_32_mot_HHH_b2_05766_000000267_0001_1_20_H_._HHH_b1_08312_af2_0001_0000100006_0000002_0_0001 (protein)
chain: SSSSTEEEIEKLLEELERAIEEGDKELFSELALRILRLIYHAGDAELLRELWRLLKEAVESSSSS
B15: il10ra_site1_normal_mot_HHH_b1_00999_000000080_0001_41_55_H_._HHH_b1_02031_af2_0001_0000900032_0000002_0 (protein)
chain: SSSSSDEEEEEVRELLEEAKRIPDPRERIEILLEALRIALHLGNEELLQLVWRVIKELGSSSSSS
B16: il10ra_site1_normal_mot_HHH_b2_00943_af2_000000149_0001_1_17_H_._HHH_b2_02724_af2_0001_0000100001_0000001_1 (protein)
chain: SSSSSEEFEELVEEAERLAKELGDENVRFLIRQLEKAYKLAGDSWAKEILENLLKELEELGSSSS
B17: il10ra_site1_normal_mot_8756ee2cf497b5429c717dfc0c0bcfd6_0001_000000186_0001_1_13_H_._HHH_b1_01406_af2_0001_0000300010_0000002_0 (protein)
chain: SSSSSTEAVELLREVVELIAEGNPEEAEKLIEEAEKVAEEEGNDVILWQLEYLKRHIEDSSSSSS
B18: il10ra_site1_normal_mot_HHH_b2_00345_af2_000000013_0001_42_56_H_._HHH_b1_02819_0001_0000300036_0000001_0 (protein)
chain: SSSSSDEEERIEELLEEAEQIDDREERVEVLLEALRLAIELGDAELLQEIWEVFKKLIHSSSSSS
B19: il10ra_site1_normal_mot_HHH_b2_06857_af2_000000179_0001_42_54_H_._HHH_b2_03020_af2_0001_0000800034_0000001_0 (protein)
chain: SSSSSSSETQKVFELLRRAAQIEDKEEAREIVEEAEELAEELGNELLEWQARFLLRALSSSSSSS
B20: il10ra_site1_normal_mot_HHH_b2_00262_000000269_0001_18_35_H_._HHH_b1_07801_0001_0000100014_0000001_0_af2pred_0001 (protein)
chain: SSSSNLEERALHLLVRAFRLAENGNPEEAERVLEELKELVEENNDEELRRAVLSLERFLGSSSSS
B21: il10ra_site1_normal_mot_HHH_b2_08186_000000021_0001_43_56_H_._HHH_b2_07301_af2_0001_0000300015_0000001_0 (protein)
chain: SSSSDELEELERELKEALERGDREEFLRLVQEVLRLAIRLGDQEALQEVWRLLEEFRKRISSSSS
B22: il10ra_site1_normal_mot_HHH_b1_08411_af2_000000053_0001_1_20_H_._HHH_b2_00099_0001_0000200020_0000001_0 (protein)
chain: SSSSQEEFEIARKVIEQVIRLQREGNPEEARRLIEELEELAEELDNVALKAAVEALKRSVNSSSS
B23: il10ra_site1_normal_mot_HHH_b2_05813_000000266_0001_1_19_H_._6fc214f1d55fddbe6d2ca43977f8e0e4_0001_0001_0000400012_0000001_0_af2pred_0001 (protein)
chain: SSVRLLLILLARLSSPAALRIRVAIKRLLDKGVPPEEIIEIVKELAEELGDPEVLRLIEEAERNG
B24: il10ra_site1_sap_15_mot_HHH_b1_02997_000000220_0001_39_52_H_._HHH_b1_02583_af2_0001_0000300016_0000001_0_0001 (protein)
chain: SSSSDEAFELAEEAIKRAKELFENGNPEEAERLLEEVIEELEERGNFAVVFSLRHLLRVLRSSSS
B25: il10ra_site1_sap_25_mot_aff62e40800cfbf30c5099bd910ef069_0001_af2_000000256_0001_1_14_H_._HHH_b2_02556_0001_0000400023_0000002_0_0001_af2pred_0001 (protein)
chain: SSSSSRAEIAARFHEHILRAALELGDPEDAERTVRIASDALKRAGNPELAEELEEVYRELTSSSS
B26: il10ra_site1_sap_34_mot_HHH_b1_03763_000000209_0001_22_38_H_._HHH_b1_03453_0001_0000300018_0000001_0_0001_af2pred_0001 (protein)
chain: SSSSSNLEEHVRRAIRAARIAAERGNPRIARLILELIAIFVREAGDEELLKLLEEVLEELSSSSS
B27: il10ra_site1_sap_19_mot_HHH_b2_02736_000000092_0001_22_38_H_._HHH_b1_05369_0001_0000200024_0000002_0_0001 (protein)
chain: SSSSDEERQEAAQAALEAFRLAIRGNPEEAREVLEEALKLAEELNDERAAKMLRDLLKALTSSSS
B28: il10ra_site1_normal_mot_HHH_b2_00984_000000042_0001_1_20_H_._HHH_b2_04946_af2_0001_0000100006_0000001_1 (protein)
chain: SSSSSSSSEELLEELEKLAEEGDQEKFLRLAQEILQLLLELGDAEALKELWELIRKFASSSSSSS
B29: il10ra_site1_normal_mot_HHH_b1_05357_000000034_0001_23_39_H_._ems_3hC_894_af2_0001_0000100001_0000001_0 (protein)
chain: SDLKLRVSHLIIQIYALAHQQQDPRLRELAEELARLAVEAAARNDEEKLKEVLEEAEEVVREGSS
B30: il10ra_site1_sap_21_mot_HHH_b1_03763_000000209_0001_22_38_H_._HHH_b1_06027_0001_0000700036_0000001_0_0001 (protein)
chain: SSSSSEREELYELSQRALELWAEGNPEEAEELLREAERLAEELGSRVLLINLRYALERLSSSSSS
B31: il10ra_site1_normal_mot_HHH_b2_00984_000000042_0001_1_20_H_._HHH_b1_06265_0001_0000500026_0000001_0 (protein)
chain: SSSSSDEEEEEIEELLEEAKRIKDLEEAAEVLLEATRIALHAGNAELLQEVWEVIKKLASSSSSS
B32: il10ra_site1_sap_18_mot_HHH_b2_03963_af2_000000216_0001_1_19_H_._HHH_b1_04083_0001_0000300034_0000002_0_0001_af2pred_dldesign_0_af2pred (protein)
chain: SSSSSPVEELVEEYCKRLAELRRAGRDDEAAALLAEATAELEALGDPEAVHRLNVFAELSLSSSS
B33: il10ra_site1_sap_12_mot_HHH_b2_06846_000000142_0001_38_52_H_._HHH_b1_01105_af2_0001_0000200004_0000001_0_0001 (protein)
chain: SSSSSEKEELARAIERLIEQAQEWNDETLLKFMLLALEMLVEEIGDPELRRRLEELEERLSSSSS
B34: il10ra_site1_normal_mot_HHH_b1_05937_af2_000000262_0001_20_37_H_._HHH_b1_08754_af2_0001_0000100001_0000001_0 (protein)
chain: SSSSDDEEERVLRLIIEANRLIFKGNPEEAQEVIEEAEELVKELGDEVLRRALEQVQRVLESSSS
B35: il10ra_site1_sap_15_mot_HHH_b2_08265_af2_000000206_0001_22_38_H_._HHH_b2_02861_af2_0001_0000700035_0000001_0_0001 (protein)
chain: SSSSDEAYEIARKAIEEALELLRNGNPEEAREIVEEAIELIRELGNEAAVFNLEHLLRVINSSSS
B36: il10ra_site1_sap_21_mot_HHH_b1_02420_000000033_0001_20_36_H_._HHH_b1_02091_0001_0000100003_0000001_0_0001 (protein)
chain: SSSSDTLEWSVEFALRVAEELYERGNEERAKELLKALRENVERAGNEELRRKVEELLEELSSSSS
B37: il10ra_site1_sap_18_mot_HHH_b2_01736_af2_000000067_0001_1_17_H_._HHH_b2_03657_0001_0000400016_0000001_0_0001 (protein)
chain: SSEDQELIENAIRFWERMYRQGAVSPEEAARALRVLIEAAEKDGDEELAEKARKLLEEIEEEKSS

These binders were tested against il10ra, Q13651 (assay: yeast display titration).

Apparent Kd, inactive:
B1 no binding seen
B2 no binding seen
B3 no binding seen
B4 > 464 nM
B5 no binding seen
B6 no binding seen
B7 no binding seen
B8 no binding seen
B9 no binding seen
B10 no binding seen
B11 no binding seen
B12 no binding seen
B13 no binding seen
B14 no binding seen
B15 no binding seen
B16 no binding seen
B17 no binding seen
B18 no binding seen
B19 no binding seen
B20 no binding seen
B21 no binding seen
B22 no binding seen
B23 no binding seen
B24 no binding seen
B25 no binding seen
B26 no binding seen
B27 > 373 nM
B28 no binding seen
B29 no binding seen
B30 no binding seen
B31 no binding seen
B32 no binding seen
B33 no binding seen
B34 no binding seen
B35 no binding seen
B36 no binding seen
B37 no binding seen

Quoted at random: three records from the list, in no set order.
Apparent Kd, inactive:
B8 no binding seen
B32 no binding seen
B1 no binding seen
